The text below walks through data of US20170327786A1 (Biogen MA Inc., priority 2014, published 2017).

For the data set, the system named is Cell Line B. Description: Fed-batch culture of Cell Line B with hypotaurine feed medium. The conditions noted are these: concentration in the bioreactor, 8 mM hypotaurine feed. Format: cell-based. The protocol: The control feed medium contained 0 mM hypotaurine. The hypotaurine feed medium contained 8 mM hypotaurine. […] The concentration of hypotaurine in the bioreactor on Day 16 was approximately 2.7 mM. […] Initial cell density was one million cells (1e6). The effects of hypotaurine were evident starting on Day 10.

Molecules are shown by their SMILES.

Regarding `NCCS(=O)O` [Hypotaurine, hypotaurine], the “Day 16 Hypotaurine Conc.” value is reported as 3.18 mM. Also, the “Day 16 Hypotaurine Conc.” value (listed as hypotaurine) is given as “approximately 2.7 mM”.
